Columns and labels:
[1] = system: A549 cells; assay: cells; conditions: Homo sapiens, A549, 48 h, read-out: IC50 (cytotoxicity)
[2] = system: H1299 cells; assay: cells; conditions: Homo sapiens, NCI-H1299, 48 h, read-out: IC50 (cytotoxicity)

For `O=C(CCCCCCC(=O)Nc1ccccc1)NO` [SAHA, suberoylanilide hydroxamic acid, reference compound], the IC50 [1] was 1.89 µM and the IC50 [2] was 4.59 µM.

— article PMC3261198, “Mitochondrial Apoptosis and FAK Signaling Disruption by a Novel Histone Deacetylase Inhibitor, HTPB, in Antitumor and Antimetastatic Mouse Models” (PLoS ONE, 2012)
